Laboratory results taken from PubChem BioAssay AID1347075 (National Center for Advancing Translational Sciences (NCATS), 2019).
In all, about 400,000 compounds went through this assay and about 5,500 (1.4%) were called active. Inconclusive means that the source gave no clear call. Such entries were picked first, then a sample of the others. Calls come from the whole dose curve; as a rule, active = well fitted cell-killing curve with a large enough effect; inconclusive = small, poorly fitted or top-dose-only effect, or effect the other way; inactive = flat fitted curve, though single readings scatter. Where the call is inconclusive, the potency comes from a doubtful curve fit.

Assay: qHTS assay for MDR1-selective chemotherapeutics: Primary screen using the parental adenocarcinoma cell KB-3-1; note: nearly all actives have a fitted effect of over 60% in size
Settings: KB-3-1 viability, CellTiter-Glo ATP luminescence, 72 h; activity change, negative = cytotoxic: at 46.1 µM (top of the series)
How it was run: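 KB-3-1 cells, DMEM (no phenol red) + 10% FBS; compound by pin transfer, 72 h, 37 °C. Readout: CellTiter-Glo luminescence after 10 min. Data normalized, curve-fitted.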
% is set by controls: 0 for no effect and ±100 for the full control effect; potency is the fitted concentration of half-maximal effect.

SMILES	Potency	activity change, negative = cytotoxic
Cc1ccc(S(=O)(=O)NC(CC(C)C)C(=O)N2CCN(C/C=C/c3ccccc3)CC2)cc1 (stereo unspecified)	inconclusive: 29.1 µM [cytotoxic, single point]	
COc1cccc(-c2cc(C(=O)N3CCCc4ccccc43)no2)c1	inactive	
O=C1CC(c2c(F)cccc2Cl)c2c(ccc3ccccc23)N1 (stereo unspecified)	inconclusive: 20.6 µM [cytotoxic, single point]	
COc1ccc(C(=O)CSc2nnc(Cn3cnc4ccccc43)o2)cc1	inconclusive: 2.59 µM [cytotoxic, partial curve, poor fit]	
CCCN(CCC)c1nc(-c2ccccn2)nc2ccccc12	active: 4.61 µM	
O=C(Cn1cc(S(=O)(=O)Cc2cccc([N+](=O)[O-])c2)c2ccccc21)N1CCOCC1	inconclusive: 29.1 µM [rising, single point]	
CCCCc1ccc(S(=O)(=O)NCCc2ccncc2)cc1	inactive	
O=[N+]([O-])c1cccc(-c2c(-c3ccccc3)ncc3cc(F)ccc23)c1	inconclusive: 16.4 µM [cytotoxic, single point]	
CC1CC(C)CN(C(=O)c2cccc(S(=O)(=O)N3c4ccccc4CC3C)c2)C1 (stereo unspecified)	inconclusive: 25.9 µM [cytotoxic, partial curve, poor fit]	
COc1cc(CNC(=O)c2ccc3nc(Cc4ccccc4)oc3c2)cc(OC)c1OC	active: 25.9 µM	
CC1(C)C2CCC1(CS(=O)(=O)NCc1ccc(Cl)cc1Cl)C(=O)C2 (stereo unspecified)	inconclusive: 20.6 µM [cytotoxic, single point]	
COc1ccc(NC(=O)CC2SC(=N)N(c3ccccc3)C2=O)c(OC)c1 (stereo unspecified)	inconclusive: 29.1 µM [rising, single point]	
Cc1cc(C)n(CCNc2nc3nonc3nc2N2CCCCC2)n1	inactive	
COc1ccc2[nH]c3c(c2c1)CCN1C(=O)N([C@@H](C)C(=O)NCCc2ccc(F)cc2)C(=O)[C@]31C	active: 11.6 µM	
O=C1NC[C@H](Cc2ccc(O)cc2)N(C[C@@H]2CCCN2C[C@H](Cc2ccccc2)N2C[C@H](Cc3ccccc3)N(CC3CCCCC3)C(=O)C2=O)C1=O	inconclusive: 29.1 µM [cytotoxic, single point]	
COc1ccc(OC)c(C(=O)CSc2nccc(-c3ccc(Br)cc3)n2)c1	inactive	
CCN(CC)c1ccc(/C=N/n2c(-c3ccccc3Br)n[nH]c2=S)cc1	inactive	
O=C(NCc1cccc(C(F)(F)F)c1)c1ccc2nc([C@H]3C[C@H](O)[C@@H](CO)O3)[nH]c2c1	inactive	
COCCNC(=O)c1cc(-c2ccc(-c3ccccc3)cc2)nc2ccccc12	active: 20.6 µM	
Cc1cc(N2C(=O)CC(C(C)c3ccccc3)C2=O)no1 (stereo unspecified)	inactive	
Cc1cccc(C)c1-n1nnnc1C(c1ccccc1)N1CCN(C/C=C/c2ccccc2)CC1 (stereo unspecified)	inactive	
CSCCC(NC(N)=O)C(=O)Nc1cccc(C#N)c1 (stereo unspecified)	inconclusive: 29.1 µM [rising, single point]	
CCCNC(=O)c1ccccc1SCc1c(C)noc1C	inactive	
COc1ccc2c(c1)c1c(c(=O)n(-c3ccc(OC)c(OC)c3)c(=O)n1Cc1ccc(F)cc1)n2C	inconclusive: 29.1 µM [cytotoxic, single point]	

Gathered by group: those above containing an aryl thioether with sulfur outside any ring (3)
SMILES	Potency	activity change, negative = cytotoxic
COc1ccc(C(=O)CSc2nnc(Cn3cnc4ccccc43)o2)cc1	inconclusive: 2.59 µM [cytotoxic, partial curve, poor fit]	
COc1ccc(OC)c(C(=O)CSc2nccc(-c3ccc(Br)cc3)n2)c1	inactive	
CCCNC(=O)c1ccccc1SCc1c(C)noc1C	inactive	

(next part)

SMILES	Potency	activity change, negative = cytotoxic
COC(=O)c1c(-c2ccc(OC)cc2)sc2cc3c(cc12)OCO3	inactive	
CNC[C@H](CC1CCCCC1)NC[C@H](CO)NCCc1cccc(C(F)(F)F)c1	inconclusive: 29.1 µM [cytotoxic, single point]	
COc1ccc(C(CNC(=O)c2oc3ccc(Br)cc3c2C)N2CCCCC2)cc1 (stereo unspecified)	inconclusive: 32.6 µM [cytotoxic, single point]	
Fc1ccc2[nH]c3c(N4CCSCC4)ncnc3c2c1	active: 5.17 µM	
O=C(Nc1cccc([N+](=O)[O-])c1)c1cc2ccccc2cc1O	active: 13 µM	
Cc1ccc2c(CN(C)Cc3cccc(Cl)c3)cc(=O)oc2c1C	inconclusive: 25.9 µM [cytotoxic, single point]	
CCc1nn(C(C)C(=O)N2CCc3ccccc3C2)c(=O)c2cc3occc3n12 (stereo unspecified)	inconclusive: 29.1 µM [cytotoxic, single point]	
COC(=O)c1ccc2nc(-c3cccc(Cl)c3)c(Cc3ccccc3)n2c1	inconclusive: 29.1 µM [cytotoxic, single point]	
O=C1N/C(=N\N=C\c2cccnc2)SC1Cc1ccc(SC(F)F)cc1 (stereo unspecified)	inconclusive: 2.06 µM [cytotoxic, full curve, poor fit]	
CCCn1nnnc1NCc1ccc(N(CC)CC)cc1	inactive	
Cc1ccc(OC(=O)CCC(=O)Oc2ccc(C)cc2C)c(C)c1	inconclusive: 18.4 µM [rising, single point]	
CCCCOc1ccc(C2C(C(=O)c3ccc(C)o3)=C(O)C(=O)N2CC2CCCO2)cc1 (stereo unspecified)	inconclusive: 29.1 µM [cytotoxic, single point]	
Cc1ccccc1OCCn1cc(C(=O)c2ccco2)c2ccccc21	inactive	
C#CCOCCOCCOCCNc1nc(N2CCN(C(=O)CCCCCCCCCCNC(=O)[C@H]([C@@H](C)CC)n3cc(CCCCCN)nn3)CC2)nc(N2CCN(C(=O)CCCCCCCCCCNC(=O)[C@@H]([C@H](C)O)n3cc(C)nn3)CC2)n1	inconclusive: 29.1 µM [cytotoxic, single point]	
c1ccc(-n2c(SCC3CCCCO3)nnc2-c2cnccn2)cc1 (stereo unspecified)	inconclusive: 9.2 µM [rising, partial curve]	
Cc1cccc(OCCNC(=O)c2ccc(Cl)c(S(=O)(=O)NCc3cccnc3)c2)c1	active: 1.46 µM	
O=C(Nc1cc(F)cc(F)c1)Nc1nnc(-c2ccncc2)s1	inactive	
COc1ccccc1NC(=O)Cc1csc(NC(=S)Nc2ccccc2)n1	inconclusive: 20.6 µM [cytotoxic, single point]	
O=C(NCC(c1ccc(F)cc1)N1CCOCC1)c1ccc([N+](=O)[O-])o1 (stereo unspecified)	inconclusive: 18.4 µM [cytotoxic, single point]	
C[N+]1(CC(=O)c2cccs2)CCOCC1	inconclusive: 14.6 µM [rising, partial curve, poor fit]	
N#CCCn1nc(-c2ccccc2)cc1Nc1ccccc1NC(=O)C(F)(F)F	inactive	
C[C@@H]1CN([C@@H](C)CO)C(=O)c2cc(Br)cnc2O[C@H]1CN(C)C(=O)c1ccc2c(c1)OCO2	inactive	
Cc1ccc(OCCCCN2CCc3ccccc3C2)cc1		inconclusive: 1.94%
CSc1ccc(C(O)c2ncc(-c3cccc(F)c3)[nH]2)cc1 (stereo unspecified)	inactive	

Quoted at random: 2 records from the list
SMILES	Potency	activity change, negative = cytotoxic
O=C(Nc1cc(F)cc(F)c1)Nc1nnc(-c2ccncc2)s1	inactive	
COC(=O)c1ccc2nc(-c3cccc(Cl)c3)c(Cc3ccccc3)n2c1	inconclusive: 29.1 µM [cytotoxic, single point]	

Next part

SMILES	Potency	activity change, negative = cytotoxic
COc1cc(-c2noc(CCCC(=O)NCc3ccccc3)n2)cc(OC)c1OC	inactive	
COc1ccc(N2C(=O)CSC23C(=O)N(Cc2ccc(C)cc2)c2ccccc23)cc1Cl (stereo unspecified)	inconclusive: 20.6 µM [cytotoxic, single point]	
Cc1nc(NCc2ccco2)c2c3c(sc2n1)CCC3	inconclusive: 18.4 µM [cytotoxic, partial curve]	
CCN(CC)C(c1ccc(F)cc1)c1nnnn1CC1CCCO1 (stereo unspecified)	inactive	
COc1ccc(S(=O)(=O)N2CCN(c3ccc(F)cc3)CC2)cc1C(=O)N1CCCC1	inactive	
CCOC(=O)c1c(NC(=O)c2ccco2)sc2c1CCCCC2	inactive	
CC(C)Cc1nc(N2CCN(C(=O)c3ccco3)CC2)c(C#N)c2c1CCC2	inconclusive: 29.1 µM [cytotoxic, single point]	
O=C(Nc1ccc(Cl)c(Cl)c1)Nc1cc(S(=O)(=O)N2CCOCC2)ccc1N1CCCC1	inconclusive: 29.1 µM [cytotoxic, single point]	
O=C(/C(=C\c1ccccc1)c1nc2ccccc2[nH]1)c1ccc(Cl)cc1	inconclusive: 16.4 µM [cytotoxic, single point]	
Cc1nnc(SCC(=O)N2CCCC2)n1-c1ccc(F)cc1	inactive	
CCCNC(=O)C1(C)CCCN(Cc2ccc(Oc3ccccc3)cc2)C1 (stereo unspecified)	inconclusive: 20.6 µM [cytotoxic, single point]	
COc1ccccc1CN1CN(S(=O)(=O)c2ccccc2)c2nc3ccccc3nc21	inconclusive: 8.2 µM [cytotoxic, partial curve, poor fit]	
COc1ccc([C@H]2CN(c3ccccc3)C(=O)[C@@H]2CC(=O)Nc2ccccc2)cc1	inactive	
CCOC(=O)c1cnc2ccc(C)cc2c1Sc1ccccc1	inconclusive: 32.6 µM [cytotoxic, single point]	
Cc1ccc(CONC(=O)c2cccc(C)c2)cc1	inactive	
CCCCNC(=O)C1c2ccccc2OCC(=O)N1CCCN1CCOCC1 (stereo unspecified)	inactive	
Cc1ccc(NC(=O)c2cccc(S(=O)(=O)N3CCN(c4ccccc4)CC3)c2)nc1	inconclusive: 23.1 µM [cytotoxic, single point]	
C=C(NNC(C)=O)c1ccc(O)cc1	inconclusive: 29.1 µM [rising, single point]	
O=C1NC(Cc2ccccc2)c2nc3cc(Cl)ccc3c(=O)n2-c2ncccc21 (stereo unspecified)	inconclusive: 16.4 µM [cytotoxic, single point]	
O=C(Nc1ccccc1N1CCCC1)c1cccc(-c2cc3ccccc3oc2=O)c1	inactive	
COc1ccc2sc(N(CCCN(C)C)C(=O)c3ccc(S(=O)(=O)N(C)Cc4ccccc4)cc3)nc2c1	inconclusive: 29.1 µM [cytotoxic, single point]	
C[C@@H]1CN([C@H](C)CO)C(=O)CCCn2nncc2CO[C@H]1CN(C)C(=O)c1ccc2ccn(C)c2c1		inconclusive: 36.9%
Cc1cccc(/C=N/N(CCO)C2=NS(=O)(=O)c3ccccc32)c1		inconclusive: -24.7%
